# Laboratory results as given in PMC4740771, “Nucleotide-dependent assembly of the peroxisomal receptor export complex” (Scientific Reports, 2016).
# Results are given in words; binding and its absence hold for the method and conditions named. Tags and fused reporters may be left off the sequences shown.
# B1: HisPex6p (natural protein, S. cerevisiae, UniProt P33760 1-1030, looked up)
# chain: MKASLTFSLSGIYAPCSISRDIYLEYGDKKAECLYGTIRLPQYGPGCTPGKIVHCVLDDSLPFCSIVVPSKLFGFMPTQPTMDFCYFEPILDNVVPVLDSVTFLINEQLYSKLMDLPQEMQQIQFLHYKYNINSMETVVHSRDILTSGLCQILNCSPFPQGLVDFTETQLILVNDTEQKLSALKYANEDEEYALPKIGTNSALSIDLESLPCTISRDLLRPAPHINDDNSIYAFTDAETLLRLDVTSGSFITVSNMGCVRLVKLFVLLLPNGFKKRTIYAPPKIIASFPDCSVVTISKSNIGHTDIPIANQVFISRVGGWLQSQKCFQNIILTTLKKFFSESKRILCQNDLIPIAFDSSMADLNIAEENDESDDEDELGQYYKNDSLVWFFVTSAELDCFSKDNSHFIIDPNRTKLITTNITNRRPLPLSRSNLQRYYGFAETFYYDLHIFPYVRQLVNILETSFNCSQRGITLNASVLLHSTTNNVGKATMVRFASKYLGIHLLEIDCLSLTSNSRQLDSTSKIIGYIRAKCENVLPYASPAVIFLAHLDSILLDVNANQDPEAIKLQKSINFEMSKLLDDFTFKFPGTTFVGSVNNIDNVPSSFRSHMRFEILVPVPSEAQRLRIFQWYLSSHELNRDVQQKVPVSYMDNISFSSLSSYSAGLTPLDIKSIVETARMTATARFYQESKKCGWLPQSILITQEDLSKATSKARNEFSVSIGAPQIPNVTWDDIGGIDFVKGEILDTIDMPLKHPELFTSGMKKRSGILFYGPPGTGKTLMAKAIATNFSLNFFSVKGPELLNMYIGESEANVRRVFQKAREAKPCVIFFDEIDSVAPKRGNQGDSGGVMDRIVSQLLAELDGMSTDADGVFVIGATNRPDLLDEALLRPGRFDKLLYLGIPDTDTKQLNILEALTRKFVLDNDVKLIELAKLCPFNYTGADFYALCSDAMLNAMSRIARMVEKKVSQHNELTGENISTRRWFDKIATKEDTKVVVKMEDFLKAQEQLTPSVSRAELNHYEAVRANFEGA
# notes: Pex6p, type II AAA-ATPase peroxin of yeast; also called single Pex6p; isolated Pex6p; source: E. coli Tuner (DE3), purified (NiNTA-agarose; with HisPex1pGST also GSH-agarose and size exclusion); not shown: His6, N-terminal, kept
# Biological target: B1
# Test: SEC; as a1 but isolated and run in the presence of 5 mM ADP instead of ATP; both purified
binder,measurement,value
B1,binding,no binding
